In patent publication US20120100361A1, “ANTISEPTIC COMPOSITION FOR ENGINEERING WOOD PRODUCTION, AND ENGINEERING WOOD” (SDS BIOTECH K.K., priority 2009, published 2012):
The name of at least one read-out is uncertain.

Assays:
Trametes versicolor [1] = assay: Test for antiseptic effects of preservative LVL (JIS K1571:2004); assay type: cell-based; settings: phenol resin
Fomitopsis palustris [2] = assay: as above; assay type: cell-based; settings: phenol resin
fungus cellar soil-bed [3] = assay: Fungus cellar soil-bed test of preservative LVL (JIS K1571:2004); settings: 25° C., grade 0 sound condition to 5 out of shape due to the decay
Trametes versicolor [4] = assay: Test for antiseptic effects of preservative plywood (JIS K1571:2004); assay type: cell-based; settings: urea melamine resin
Fomitopsis palustris [5] = assay: as above; assay type: cell-based; settings: plywood, urea melamine resin, Fomitopsis palustris
fungus cellar soil-bed [6] = assay: Fungus cellar soil-bed test of preservative plywood (JIS K1571:2004); settings: 25° C., grade 0 sound condition to 5 out of shape due to the decay
[7] = treated amount 25 g/m^3, six months
[8] = treated amount 50 g/m^3, six months
[9] = treated amount 100 g/m^3, six months
[10] = treated amount 150 g/m^3, six months

Row | SMILES | average rate of decrease in weight (Trametes versicolor [1]; treated amount 25 g/m^3) | average rate of decrease in weight (Trametes versicolor [1]; treated amount 50 g/m^3) | average rate of decrease in weight (Trametes versicolor [1]; treated amount 100 g/m^3) | average rate of decrease in weight (Trametes versicolor [1]; treated amount 150 g/m^3) | average rate of decrease in weight (Fomitopsis palustris [2]; treated amount 25 g/m^3) | average rate of decrease in weight (Fomitopsis palustris [2]; treated amount 50 g/m^3) | average rate of decrease in weight (Fomitopsis palustris [2]; treated amount 100 g/m^3) | average rate of decrease in weight (Fomitopsis palustris [2]; treated amount 150 g/m^3) | Grade average of the decay damage of five test samples (fungus cellar soil-bed [3]; [7]) | Grade average of the decay damage of five test samples (fungus cellar soil-bed [3]; [8]) | Grade average of the decay damage of five test samples (fungus cellar soil-bed [3]; [9]) | Grade average of the decay damage of five test samples (fungus cellar soil-bed [3]; [10]) | average rate of decrease in weight (Trametes versicolor [4]; treated amount 25 g/m^3) | average rate of decrease in weight (Trametes versicolor [4]; treated amount 50 g/m^3) | average rate of decrease in weight (Trametes versicolor [4]; treated amount 100 g/m^3) | average rate of decrease in weight (Trametes versicolor [4]; treated amount 150 g/m^3) | average rate of decrease in weight (Fomitopsis palustris [5]; treated amount 25 g/m^3) | average rate of decrease in weight (Fomitopsis palustris [5]; treated amount 50 g/m^3) | average rate of decrease in weight (Fomitopsis palustris [5]; treated amount 100 g/m^3) | average rate of decrease in weight (Fomitopsis palustris [5]; treated amount 150 g/m^3) | other results
1 | CC1(C)CCC(Cc2ccc(Cl)cc2)C1(O)Cn1cncn1 (stereo not drawn) [Comparative Example 14, metconazole] | X (The average rate of decrease in weight was 3% or more.) | X (The average rate of decrease in weight was 3% or more.) | X (The average rate of decrease in weight was 3% or more.) | X (The average rate of decrease in weight was 3% or more.) | X (The average rate of decrease in weight was 3% or more.) | X (The average rate of decrease in weight was 3% or more.) | X (The average rate of decrease in weight was 3% or more.) | X (The average rate of decrease in weight was 3% or more.) | 3.2 | 2.8 | 2.8 | 3.4 | X (The average rate of decrease in weight was 3% or more.) | X (The average rate of decrease in weight was 3% or more.) | X (The average rate of decrease in weight was 3% or more.) | X (The average rate of decrease in weight was 3% or more.) | X (The average rate of decrease in weight was 3% or more.) | X (The average rate of decrease in weight was 3% or more.) | X (The average rate of decrease in weight was 3% or more.) | X (The average rate of decrease in weight was 3% or more.) | Grade average of the decay damage of five test samples (fungus cellar soil-bed [6]; [7]): 3.4; Grade average of the decay damage of five test samples (fungus cellar soil-bed [6]; [8]): 3.4; Grade average of the decay damage of five test samples (fungus cellar soil-bed [6]; [9]): 3.0; Grade average of the decay damage of five test samples (fungus cellar soil-bed [6]; [10]): 3.2
2 | CCCCC(C#N)(Cn1cncn1)c1ccc(Cl)cc1 (stereo not drawn) [Comparative Example 15, myclobutanil] | X (The average rate of decrease in weight was 3% or more.) | X (The average rate of decrease in weight was 3% or more.) | X (The average rate of decrease in weight was 3% or more.) | X (The average rate of decrease in weight was 3% or more.) | X (The average rate of decrease in weight was 3% or more.) | X (The average rate of decrease in weight was 3% or more.) | X (The average rate of decrease in weight was 3% or more.) | X (The average rate of decrease in weight was 3% or more.) | 2.6 | 2.8 | 3.2 | 2.6 | X (The average rate of decrease in weight was 3% or more.) | X (The average rate of decrease in weight was 3% or more.) | X (The average rate of decrease in weight was 3% or more.) | X (The average rate of decrease in weight was 3% or more.) | X (The average rate of decrease in weight was 3% or more.) | X (The average rate of decrease in weight was 3% or more.) | X (The average rate of decrease in weight was 3% or more.) | X (The average rate of decrease in weight was 3% or more.) | Grade average of the decay damage of five test samples (fungus cellar soil-bed [6]; [7]): 2.8; Grade average of the decay damage of five test samples (fungus cellar soil-bed [6]; [8]): 2.8; Grade average of the decay damage of five test samples (fungus cellar soil-bed [6]; [9]): 2.8; Grade average of the decay damage of five test samples (fungus cellar soil-bed [6]; [10]): 2.8
3 | CCCC(Cn1cncn1)c1ccc(Cl)cc1Cl (stereo not drawn) [Comparative Example 16, penconazole] | X (The average rate of decrease in weight was 3% or more.) | X (The average rate of decrease in weight was 3% or more.) | X (The average rate of decrease in weight was 3% or more.) | X (The average rate of decrease in weight was 3% or more.) | X (The average rate of decrease in weight was 3% or more.) | X (The average rate of decrease in weight was 3% or more.) | X (The average rate of decrease in weight was 3% or more.) | X (The average rate of decrease in weight was 3% or more.) | 3.0 | 3.0 | 3.0 | 3.0 | X (The average rate of decrease in weight was 3% or more.) | X (The average rate of decrease in weight was 3% or more.) | X (The average rate of decrease in weight was 3% or more.) | X (The average rate of decrease in weight was 3% or more.) | X (The average rate of decrease in weight was 3% or more.) | X (The average rate of decrease in weight was 3% or more.) | X (The average rate of decrease in weight was 3% or more.) | X (The average rate of decrease in weight was 3% or more.) | Grade average of the decay damage of five test samples (fungus cellar soil-bed [6]; [7]): 3.4; Grade average of the decay damage of five test samples (fungus cellar soil-bed [6]; [8]): 3.2; Grade average of the decay damage of five test samples (fungus cellar soil-bed [6]; [9]): 3.4; Grade average of the decay damage of five test samples (fungus cellar soil-bed [6]; [10]): 3.6
4 | CCCC1COC(Cn2cncn2)(c2ccc(Cl)cc2Cl)O1 (stereo not drawn) [Comparative Example 17, propiconazole] | X (The average rate of decrease in weight was 3% or more.) | X (The average rate of decrease in weight was 3% or more.) | X (The average rate of decrease in weight was 3% or more.) | X (The average rate of decrease in weight was 3% or more.) | X (The average rate of decrease in weight was 3% or more.) | X (The average rate of decrease in weight was 3% or more.) | X (The average rate of decrease in weight was 3% or more.) | X (The average rate of decrease in weight was 3% or more.) | 2.6 | 2.8 | 2.6 | 3.4 | X (The average rate of decrease in weight was 3% or more.) | X (The average rate of decrease in weight was 3% or more.) | X (The average rate of decrease in weight was 3% or more.) | X (The average rate of decrease in weight was 3% or more.) | X (The average rate of decrease in weight was 3% or more.) | X (The average rate of decrease in weight was 3% or more.) | X (The average rate of decrease in weight was 3% or more.) | X (The average rate of decrease in weight was 3% or more.) | Grade average of the decay damage of five test samples (fungus cellar soil-bed [6]; [7]): 3.2; Grade average of the decay damage of five test samples (fungus cellar soil-bed [6]; [8]): 3.0; Grade average of the decay damage of five test samples (fungus cellar soil-bed [6]; [9]): 3.6; Grade average of the decay damage of five test samples (fungus cellar soil-bed [6]; [10]): 2.8
5 | FC(F)C(F)(F)OCC(Cn1cncn1)c1ccc(Cl)cc1Cl (stereo not drawn) [Comparative Example 18, tetraconazole] | X (The average rate of decrease in weight was 3% or more.) | X (The average rate of decrease in weight was 3% or more.) | X (The average rate of decrease in weight was 3% or more.) | X (The average rate of decrease in weight was 3% or more.) | X (The average rate of decrease in weight was 3% or more.) | X (The average rate of decrease in weight was 3% or more.) | X (The average rate of decrease in weight was 3% or more.) | X (The average rate of decrease in weight was 3% or more.) | 3.2 | 2.6 | 2.8 | 3.6 | X (The average rate of decrease in weight was 3% or more.) | X (The average rate of decrease in weight was 3% or more.) | X (The average rate of decrease in weight was 3% or more.) | X (The average rate of decrease in weight was 3% or more.) | X (The average rate of decrease in weight was 3% or more.) | X (The average rate of decrease in weight was 3% or more.) | X (The average rate of decrease in weight was 3% or more.) | X (The average rate of decrease in weight was 3% or more.) | Grade average of the decay damage of five test samples (fungus cellar soil-bed [6]; [7]): 3.2; Grade average of the decay damage of five test samples (fungus cellar soil-bed [6]; [8]): 3.6; Grade average of the decay damage of five test samples (fungus cellar soil-bed [6]; [9]): 3.6; Grade average of the decay damage of five test samples (fungus cellar soil-bed [6]; [10]): 2.8
